Results reported in article PMC10507087.
These are yes or no findings as the source states them, for the method shown. In cells and extracts the contact can be indirect. Some results given as binding are weak or reduced against the parent protein; the word gives no strength.

Amino acid sequences for entries named in this document (tags omitted). Residues count along the entry.
UniProt Q9NZQ7, residues 19-290: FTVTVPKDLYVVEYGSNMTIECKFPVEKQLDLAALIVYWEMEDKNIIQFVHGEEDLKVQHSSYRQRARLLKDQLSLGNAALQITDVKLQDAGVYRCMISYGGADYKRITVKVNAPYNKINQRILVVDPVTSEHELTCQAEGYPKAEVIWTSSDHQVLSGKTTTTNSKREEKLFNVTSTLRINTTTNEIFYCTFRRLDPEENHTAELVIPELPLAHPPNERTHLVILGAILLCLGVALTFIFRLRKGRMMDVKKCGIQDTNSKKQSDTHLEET

Molecular target: T1, activating transcription factor-3 (ATF3) (human (endogenous in E109 and Kyse150)) (UniProt P18847)
T1 sequence: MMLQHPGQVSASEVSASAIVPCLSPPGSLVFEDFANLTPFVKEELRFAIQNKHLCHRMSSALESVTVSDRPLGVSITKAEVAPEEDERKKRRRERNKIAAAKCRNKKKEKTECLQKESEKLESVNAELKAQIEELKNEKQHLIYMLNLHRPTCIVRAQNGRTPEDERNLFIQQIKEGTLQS
Assay: co-IP; clarified supernatants of E109 and Kyse150 cells incubated with anti-ATF3 antibody for 4 h at 4 °C, then Protein A/G magnetic beads overnight; five washes with cell lysis buffer; western blot

binding: binds
Substance: PD-L1 (from UniProt Q9NZQ7 19-290)
